According to PubChem BioAssay AID743049 (Broad Institute, 2013):
The inconclusive results got no clear call from the source; some entries with a clear call stand among them for comparison. Calls of active or inactive are those of the source. No rule for the calls is given here.

Assay: cytotoxicity dependent on PAX8, dose response, cell-based, plate reader, dry powder (AID 743049)
Conditions: PAX8-dependent cancer cell viability; at 35 µM (top of the series) unless noted

Compound	activity change, negative = cytotoxicity
Cc1ccccc1CNC(=O)C1CCCN(c2nnc(C)c3c(C)n(-c4ccccc4)nc23)C1 (centres undefined)	inactive: -43.2% [at 50 µM]
COc1cccc(C#Cc2ccc([C@@H]3[C@@H](C#N)N(C(=O)C4CCCC4)[C@@H]3CO)cc2)c1	inconclusive: -16.9%
COc1ccc(S(=O)(=O)N2CCCCN3[C@H](CO)[C@H](c4ccc(C#CC(C)C)cc4)[C@H]3C2)cc1	inconclusive: 37.4%
N#C[C@H]1[C@@H](c2ccc(C#Cc3cccc(F)c3)cc2)[C@@H](CO)N1C(=O)C1CCCC1	inconclusive: -3.35%
